This note sets out measurements from the supplement of paper PMC10849652.

By UniProt entry, the sequences of proteins in these tests, tags left out. Where a name states a change or a piece, a line headed by the entry shows the natural chain unless it says otherwise.
UniProt P78318: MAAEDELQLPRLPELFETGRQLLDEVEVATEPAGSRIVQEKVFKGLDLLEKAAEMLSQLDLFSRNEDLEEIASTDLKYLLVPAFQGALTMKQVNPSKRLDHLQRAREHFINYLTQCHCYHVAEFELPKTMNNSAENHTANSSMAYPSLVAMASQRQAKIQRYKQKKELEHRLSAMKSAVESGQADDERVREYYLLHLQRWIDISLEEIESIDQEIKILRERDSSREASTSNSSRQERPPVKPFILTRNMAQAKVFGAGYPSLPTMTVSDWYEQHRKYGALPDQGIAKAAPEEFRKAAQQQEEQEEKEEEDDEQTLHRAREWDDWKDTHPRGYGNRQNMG
UniProt Q9Y6K9, whole entry, looked up: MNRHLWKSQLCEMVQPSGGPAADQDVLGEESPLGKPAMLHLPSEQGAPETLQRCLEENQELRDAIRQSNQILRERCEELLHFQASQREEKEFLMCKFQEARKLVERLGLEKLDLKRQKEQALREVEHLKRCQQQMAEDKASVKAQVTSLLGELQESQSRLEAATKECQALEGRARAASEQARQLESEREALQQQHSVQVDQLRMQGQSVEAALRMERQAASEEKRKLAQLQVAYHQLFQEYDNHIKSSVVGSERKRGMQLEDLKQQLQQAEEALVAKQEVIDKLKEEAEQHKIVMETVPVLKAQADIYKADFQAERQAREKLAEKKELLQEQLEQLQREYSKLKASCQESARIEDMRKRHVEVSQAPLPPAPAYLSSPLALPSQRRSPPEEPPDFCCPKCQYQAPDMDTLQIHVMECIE
UniProt O94829: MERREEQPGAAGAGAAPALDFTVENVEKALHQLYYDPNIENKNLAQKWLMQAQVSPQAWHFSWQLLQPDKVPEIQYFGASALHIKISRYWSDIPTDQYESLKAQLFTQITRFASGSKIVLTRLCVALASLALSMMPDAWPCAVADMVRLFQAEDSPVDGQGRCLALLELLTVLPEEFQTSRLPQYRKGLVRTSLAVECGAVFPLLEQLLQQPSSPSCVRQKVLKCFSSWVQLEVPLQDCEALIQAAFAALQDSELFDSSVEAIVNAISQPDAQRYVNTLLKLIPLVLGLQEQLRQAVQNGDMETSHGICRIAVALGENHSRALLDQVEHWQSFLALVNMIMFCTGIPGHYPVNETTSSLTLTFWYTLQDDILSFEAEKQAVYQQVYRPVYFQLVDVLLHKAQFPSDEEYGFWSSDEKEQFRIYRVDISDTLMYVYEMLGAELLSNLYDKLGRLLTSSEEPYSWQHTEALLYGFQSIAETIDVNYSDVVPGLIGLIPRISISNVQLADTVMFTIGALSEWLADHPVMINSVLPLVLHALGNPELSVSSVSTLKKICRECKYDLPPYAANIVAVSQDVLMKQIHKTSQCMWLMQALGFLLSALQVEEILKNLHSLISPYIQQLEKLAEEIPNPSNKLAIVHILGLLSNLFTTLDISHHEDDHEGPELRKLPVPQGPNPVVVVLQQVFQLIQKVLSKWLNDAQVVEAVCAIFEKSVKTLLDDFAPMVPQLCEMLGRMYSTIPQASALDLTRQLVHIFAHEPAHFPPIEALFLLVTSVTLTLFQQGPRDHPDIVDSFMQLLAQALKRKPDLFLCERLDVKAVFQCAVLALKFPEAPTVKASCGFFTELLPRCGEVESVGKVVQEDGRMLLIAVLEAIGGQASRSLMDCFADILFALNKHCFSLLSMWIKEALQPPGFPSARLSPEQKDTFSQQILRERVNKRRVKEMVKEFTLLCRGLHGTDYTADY
UniProt Q70UQ0: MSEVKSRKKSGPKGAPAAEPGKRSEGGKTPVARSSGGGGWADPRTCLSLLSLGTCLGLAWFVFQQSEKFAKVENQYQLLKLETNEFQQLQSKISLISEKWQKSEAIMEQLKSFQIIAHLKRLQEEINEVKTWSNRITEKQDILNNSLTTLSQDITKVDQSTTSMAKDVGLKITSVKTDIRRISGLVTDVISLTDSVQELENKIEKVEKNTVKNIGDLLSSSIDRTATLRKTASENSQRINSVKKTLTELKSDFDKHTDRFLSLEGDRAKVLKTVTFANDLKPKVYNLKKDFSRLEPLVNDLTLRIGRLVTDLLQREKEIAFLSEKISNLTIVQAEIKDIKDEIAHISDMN
UniProt O75874, whole entry, looked up: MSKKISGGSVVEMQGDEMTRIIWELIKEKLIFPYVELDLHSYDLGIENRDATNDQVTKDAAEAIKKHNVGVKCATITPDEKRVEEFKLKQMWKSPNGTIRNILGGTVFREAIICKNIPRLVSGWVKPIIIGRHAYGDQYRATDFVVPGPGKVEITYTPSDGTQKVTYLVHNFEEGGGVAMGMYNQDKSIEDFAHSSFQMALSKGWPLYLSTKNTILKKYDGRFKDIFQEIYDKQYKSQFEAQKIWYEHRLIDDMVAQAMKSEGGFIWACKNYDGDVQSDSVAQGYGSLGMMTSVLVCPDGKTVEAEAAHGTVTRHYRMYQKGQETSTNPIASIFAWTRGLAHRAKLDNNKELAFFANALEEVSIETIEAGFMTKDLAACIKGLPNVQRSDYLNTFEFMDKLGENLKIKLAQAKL
UniProt Q12905: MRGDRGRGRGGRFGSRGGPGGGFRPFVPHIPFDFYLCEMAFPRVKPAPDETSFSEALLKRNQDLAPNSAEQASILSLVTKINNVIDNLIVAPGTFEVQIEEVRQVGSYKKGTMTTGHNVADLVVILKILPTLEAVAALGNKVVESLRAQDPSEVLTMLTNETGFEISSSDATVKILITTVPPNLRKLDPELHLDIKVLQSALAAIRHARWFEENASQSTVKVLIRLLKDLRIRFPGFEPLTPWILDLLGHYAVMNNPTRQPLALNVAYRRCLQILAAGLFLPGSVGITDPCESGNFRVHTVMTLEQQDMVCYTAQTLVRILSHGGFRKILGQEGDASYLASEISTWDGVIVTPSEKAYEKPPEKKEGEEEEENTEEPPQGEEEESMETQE
UniProt Q14653: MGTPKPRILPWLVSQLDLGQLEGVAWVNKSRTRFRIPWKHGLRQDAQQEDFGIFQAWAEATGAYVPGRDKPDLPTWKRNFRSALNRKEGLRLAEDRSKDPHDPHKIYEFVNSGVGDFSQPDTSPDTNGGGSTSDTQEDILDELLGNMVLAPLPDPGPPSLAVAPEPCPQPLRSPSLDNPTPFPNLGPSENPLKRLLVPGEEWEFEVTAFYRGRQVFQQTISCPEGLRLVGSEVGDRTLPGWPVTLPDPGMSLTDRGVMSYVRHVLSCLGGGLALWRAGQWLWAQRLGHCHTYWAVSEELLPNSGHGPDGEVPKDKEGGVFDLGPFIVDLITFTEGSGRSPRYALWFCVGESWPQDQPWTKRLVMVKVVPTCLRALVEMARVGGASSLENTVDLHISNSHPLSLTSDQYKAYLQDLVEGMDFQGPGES
UniProt Q96HW7, whole entry, looked up: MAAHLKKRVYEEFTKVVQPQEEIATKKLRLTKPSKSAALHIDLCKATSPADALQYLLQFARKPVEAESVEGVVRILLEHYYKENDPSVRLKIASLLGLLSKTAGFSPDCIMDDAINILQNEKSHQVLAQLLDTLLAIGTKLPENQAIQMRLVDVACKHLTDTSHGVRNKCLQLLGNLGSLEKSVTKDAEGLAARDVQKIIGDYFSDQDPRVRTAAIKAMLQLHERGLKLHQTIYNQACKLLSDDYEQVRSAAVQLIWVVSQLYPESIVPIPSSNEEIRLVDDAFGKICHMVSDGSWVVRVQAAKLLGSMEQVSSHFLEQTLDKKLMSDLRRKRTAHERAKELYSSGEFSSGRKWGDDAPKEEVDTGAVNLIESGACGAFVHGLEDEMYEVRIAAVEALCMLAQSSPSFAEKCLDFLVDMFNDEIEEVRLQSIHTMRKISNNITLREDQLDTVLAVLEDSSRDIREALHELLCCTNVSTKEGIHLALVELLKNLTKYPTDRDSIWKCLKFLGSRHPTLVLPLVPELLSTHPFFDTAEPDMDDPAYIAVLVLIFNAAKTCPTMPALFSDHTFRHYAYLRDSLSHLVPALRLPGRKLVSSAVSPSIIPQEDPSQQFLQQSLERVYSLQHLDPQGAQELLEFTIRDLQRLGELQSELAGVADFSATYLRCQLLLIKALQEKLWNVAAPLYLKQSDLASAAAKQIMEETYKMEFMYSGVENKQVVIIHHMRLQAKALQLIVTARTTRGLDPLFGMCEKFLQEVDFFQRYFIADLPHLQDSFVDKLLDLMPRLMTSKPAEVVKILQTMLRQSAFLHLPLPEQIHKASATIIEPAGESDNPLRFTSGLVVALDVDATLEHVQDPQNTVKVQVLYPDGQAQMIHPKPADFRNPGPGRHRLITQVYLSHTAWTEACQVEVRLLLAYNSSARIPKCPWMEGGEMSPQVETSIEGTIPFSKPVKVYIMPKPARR
UniProt Q9H0H0, whole entry, looked up: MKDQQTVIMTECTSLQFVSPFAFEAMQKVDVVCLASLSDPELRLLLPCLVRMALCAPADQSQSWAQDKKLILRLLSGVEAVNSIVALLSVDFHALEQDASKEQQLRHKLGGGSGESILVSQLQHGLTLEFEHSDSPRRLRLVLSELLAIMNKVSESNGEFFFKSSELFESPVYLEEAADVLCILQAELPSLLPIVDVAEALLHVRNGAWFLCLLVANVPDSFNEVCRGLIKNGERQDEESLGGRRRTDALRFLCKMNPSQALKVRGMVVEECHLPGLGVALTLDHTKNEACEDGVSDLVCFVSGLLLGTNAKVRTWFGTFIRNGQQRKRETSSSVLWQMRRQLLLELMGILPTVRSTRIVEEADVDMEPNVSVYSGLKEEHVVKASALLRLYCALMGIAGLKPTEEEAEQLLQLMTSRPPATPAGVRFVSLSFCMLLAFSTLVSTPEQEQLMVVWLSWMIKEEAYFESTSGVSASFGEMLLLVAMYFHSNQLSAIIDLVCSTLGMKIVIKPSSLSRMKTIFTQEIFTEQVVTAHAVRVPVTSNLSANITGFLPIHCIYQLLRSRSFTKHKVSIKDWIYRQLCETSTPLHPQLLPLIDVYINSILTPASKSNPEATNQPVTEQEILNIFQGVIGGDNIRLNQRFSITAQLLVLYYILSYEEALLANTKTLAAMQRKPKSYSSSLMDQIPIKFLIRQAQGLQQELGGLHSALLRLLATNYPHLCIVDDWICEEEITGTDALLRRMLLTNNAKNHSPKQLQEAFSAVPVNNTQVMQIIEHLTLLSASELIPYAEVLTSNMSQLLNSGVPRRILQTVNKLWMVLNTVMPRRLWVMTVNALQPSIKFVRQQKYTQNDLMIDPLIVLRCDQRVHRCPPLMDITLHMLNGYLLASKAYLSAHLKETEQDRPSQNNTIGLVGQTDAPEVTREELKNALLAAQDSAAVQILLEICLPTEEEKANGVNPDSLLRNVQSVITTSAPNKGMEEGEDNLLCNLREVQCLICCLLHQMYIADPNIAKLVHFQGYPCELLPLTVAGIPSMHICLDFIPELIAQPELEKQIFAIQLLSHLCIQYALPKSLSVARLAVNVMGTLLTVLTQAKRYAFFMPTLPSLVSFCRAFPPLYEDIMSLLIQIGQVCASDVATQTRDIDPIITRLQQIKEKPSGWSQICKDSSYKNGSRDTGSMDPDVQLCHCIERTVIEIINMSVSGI
UniProt Q14116, whole entry, looked up: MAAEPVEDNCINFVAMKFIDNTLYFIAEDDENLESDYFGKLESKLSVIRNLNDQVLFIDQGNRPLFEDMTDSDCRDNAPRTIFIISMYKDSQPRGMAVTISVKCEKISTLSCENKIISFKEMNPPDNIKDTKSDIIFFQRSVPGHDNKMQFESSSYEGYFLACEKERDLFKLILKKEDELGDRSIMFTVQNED
UniProt P20839, whole entry, looked up: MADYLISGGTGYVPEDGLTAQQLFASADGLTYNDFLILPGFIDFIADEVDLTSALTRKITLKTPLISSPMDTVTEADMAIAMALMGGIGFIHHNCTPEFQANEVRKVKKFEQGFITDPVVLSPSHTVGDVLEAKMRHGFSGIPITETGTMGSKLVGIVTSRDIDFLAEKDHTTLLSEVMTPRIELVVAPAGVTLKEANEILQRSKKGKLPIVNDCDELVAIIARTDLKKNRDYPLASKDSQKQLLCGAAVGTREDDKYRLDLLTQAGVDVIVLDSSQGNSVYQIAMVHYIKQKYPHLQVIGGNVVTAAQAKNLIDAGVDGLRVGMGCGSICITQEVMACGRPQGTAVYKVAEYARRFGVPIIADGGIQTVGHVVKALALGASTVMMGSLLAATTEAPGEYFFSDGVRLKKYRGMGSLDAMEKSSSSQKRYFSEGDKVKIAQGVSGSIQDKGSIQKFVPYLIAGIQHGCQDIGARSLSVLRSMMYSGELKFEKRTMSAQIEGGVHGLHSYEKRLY

Assay in all cases: log2 fold change, soluble protein after heating vs DMSO (PISA); higher = thermal stabilisation; K562 cells, 10 uM, 30 min; active = over 0.2 and 3.5 SD of the protein, either way, in both replicates (recomputed)
Compound in test [1]: NC(=O)Nc1cc(-c2cccc(F)c2)sc1C(=O)N[C@H]1CCCNC1
In a few lines:
(§1)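 Soluble protein was defined as the supernatant after 21,000xg for 90 min. It came from K562 cells at 2×10^6 cells/mL given 10 μM compound for 30 min, heated in aliquots for 3 min across 48°C-58°C, pooled, and extracted in PBS with 0.5% NP-40 at 4°C, and was quantified by TMTpro 16plex LC-MS/MS with equalised channel sums. Thermal stability against control samples, from duplicates, is reported as log2 fold change.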

Compound in test [2]: NC(=O)c1cnc(N[C@@H]2CCCC[C@@H]2N)nc1Nc1cccc(-n2nccn2)c1
The procedure, abridged: as §1

Compound in test [3]: NC1(c2ccc(-c3nc4ccn5c(=O)[nH]nc5c4cc3-c3ccccc3)cc2)CCC1
The procedure, abridged: as §1

Compound in test [4]: NCC(=O)Nc1ccc(-n2nc(C(F)(F)F)cc2-c2ccc3c(ccc4ccccc43)c2)cc1
In a few lines:
as §1

Compound in a further test: Nc1ccccc1NC(=O)c1ccc(CNC(=O)OCc2cccnc2)cc1 [entinostat]
The procedure, abridged:
as §1

Compound in the next test: O=C(CCCCCCC(=O)Nc1ccccc1)NO [vorinostat]
The procedure, abridged: as §1

Compound in a further test: O=C(CCCCCCNC(=O)c1cnc(N(c2ccccc2)c2ccccc2Cl)nc1)NO [citarinostat]
In a few lines: as §1

Compound in a further test: O=C(O)c1ccc2c(c1)nc(Nc1cccc(Cl)c1)c1ccncc12 [silmitasertib]
The procedure, abridged:
as §1

Compound in test [5]: O=C1NC(=O)C(c2cnc3ccccn23)=C1c1cn2c3c(cc(F)cc13)CN(C(=O)N1CCCCC1)CC2
In a few lines: as §1

Compound in test [6]: c1cc(OCCN2CCCCC2)cc(-c2n[nH]c3ccc(-c4nnc[nH]4)cc23)c1
In a few lines:
as §1

The other results are listed elsewhere or left out.

For the target IGBP1 (UniProt P78318), the log2 fold change in [1] is inactive: 0.025; in test [2] it was inactive: -0.09; in test [3], inactive: -0.136; in test [4], inactive: -0.035; in the test with entinostat, inactive: 0.035; with vorinostat, inactive: 0.032. Further, the log2 fold change was inactive: 0.074 with citarinostat, inactive: 0.048 with silmitasertib, inactive: -0.085 in test [5] and inactive: -0.017 in test [6].
Take IKBKG isoform 2 (UniProt Q9Y6K9): the log2 fold change was inactive: -0.03 in test [1]; inactive: -0.033 in test [2]; inactive: 0.055 in test [3]; inactive: -0.033 in test [4]; inactive: -0.025 in the test with entinostat; inactive: -0.04 with vorinostat. For the same target, the log2 fold change with citarinostat is inactive: 0.007; in the test with silmitasertib, inactive: -0.001; in [5], inactive: -0.005; in test [6], inactive: -0.093.
Regarding IPO13 (UniProt O94829), the log2 fold change in test [1] is inactive: 0.051; in test [2], inactive: -0.101; in test [3], inactive: -0.206; in test [4], inactive: -0.112; with entinostat, inactive: 0.012; in the test with vorinostat, inactive: 0.138. Besides, the log2 fold change in the test with citarinostat is inactive: 0.067; with silmitasertib, inactive: 0.081; in test [5] it was inactive: -0.046; in [6], inactive: -0.175.
For IKBIP isoform 4 (UniProt Q70UQ0), the log2 fold change in test [1] was inactive: -0.047; in test [2], inactive: -0.032; in test [3] it was inactive: -0.006; in test [4], inactive: -0.015; with entinostat, inactive: -0.023; with vorinostat, inactive: -0.064. Further, the log2 fold change was inactive: 0.003 with citarinostat, inactive: 0.047 with silmitasertib, inactive: -0.01 in [5] and inactive: -0.081 in test [6].
For the target IDH1 (UniProt O75874), the log2 fold change is inactive: 0.033 in test [1]; inactive: 0.013 in [2]; inactive: -0.007 in test [3]; inactive: 0.013 in test [4]; inactive: -0.013 with entinostat; inactive: -0.004 with vorinostat. For the same target, the log2 fold change in the test with citarinostat is inactive: 0.012; with silmitasertib, inactive: 0.006; in test [5], inactive: -0.044; in test [6] it was inactive: -0.034.
In the case of ILF2 (UniProt Q12905), the log2 fold change in test [1] was inactive: -0.02; in test [2], inactive: 0.024; in [3], inactive: 0.121; in test [4], inactive: 0.109; with entinostat it was inactive: -0.049; with vorinostat, inactive: -0.059. Also, the log2 fold change in the test with citarinostat is inactive: -0.037; in the test with silmitasertib it was inactive: 0.13; in test [5], inactive: 0.378; in [6], inactive: -0.18.
In the case of IFT80 isoform 3 (UniProt Q9P2H3), the log2 fold change in [1] is inactive: 0.027; in test [2] it was inactive: 0.031; in [3] it was inactive: -0.081; in test [4], inactive: 0.003; with entinostat it was inactive: -0.005; in the test with vorinostat it was inactive: 0.04. Further, the log2 fold change with citarinostat is inactive: 0.011; with silmitasertib, inactive: -0.085; in [5], inactive: -0.086; in [6], inactive: -0.093.
With IPO4 isoform 2 (UniProt Q8TEX9), the log2 fold change is inactive: 0.038 in test [1]; inactive: -0.037 in test [2]; inactive: -0.119 in test [3]; inactive: 0.026 in test [4]; inactive: 0.024 with entinostat; inactive: 0.087 in the test with vorinostat. Also, the log2 fold change in the test with citarinostat was inactive: 0.049; with silmitasertib it was inactive: 0.152; in [5], inactive: 0.114; in test [6] it was inactive: -0.058.
In the case of IRF3 (UniProt Q14653), the log2 fold change is active: 0.221 in [1]; inactive: -0.021 in test [2]; inactive: -0.021 in [3]; inactive: -0.022 in test [4]; inactive: -0.078 with entinostat; inactive: 0.06 with vorinostat. In addition, the log2 fold change with citarinostat was inactive: 0.028; in the test with silmitasertib, inactive: -0.044; in [5] it was inactive: -0.047; in [6], inactive: -0.028.
In the case of INTS4 (UniProt Q96HW7), the log2 fold change is inactive: 0.019 in [1]; inactive: -0.035 in [2]; inactive: -0.031 in [3]; inactive: -0.024 in test [4]; inactive: 0.024 in the test with entinostat; inactive: -0.008 with vorinostat. Further, the log2 fold change was inactive: 0.007 in the test with citarinostat, inactive: 0.02 in the test with silmitasertib, inactive: -0.018 in test [5] and inactive: -0.01 in test [6].
Regarding IMPDH2 (UniProt P12268), the log2 fold change is inactive: -0.027 in [1]; inactive: 0.018 in [2]; inactive: 0.013 in test [3]; inactive: 0.106 in test [4]; inactive: -0.036 in the test with entinostat; inactive: 0.02 with vorinostat. For the same target, the log2 fold change was inactive: 0.001 with citarinostat, inactive: -0.007 with silmitasertib, inactive: 0.028 in test [5] and inactive: -0.09 in test [6].
Consider INTS2 (UniProt Q9H0H0), for which the log2 fold change in [1] was inactive: 0.084; in test [2], inactive: -0.079; in test [3], inactive: -0.076; in test [4] it was inactive: 0.126; with entinostat, inactive: 0.081; with vorinostat, inactive: -0.009. Further, the log2 fold change is inactive: 0.004 in the test with citarinostat, inactive: -0.028 with silmitasertib, inactive: 0.003 in test [5] and inactive: 0.205 in test [6].
Regarding IL18 (UniProt Q14116), the log2 fold change in test [1] is inactive: 0.005; in test [2], inactive: 0.012; in test [3], inactive: 0.028; in test [4], inactive: -0.012; in the test with entinostat, inactive: -0.017; with vorinostat, inactive: 0.017. The log2 fold change was inactive: 0.01 with citarinostat, inactive: -0.04 with silmitasertib, inactive: -0.005 in test [5] and inactive: 0.002 in [6].
In the case of IMPDH1 isoform 6 (UniProt P20839), the log2 fold change is inactive: 0.033 in test [1]; inactive: 0.008 in test [2]; inactive: 0.012 in [3]; inactive: 0.054 in test [4]; inactive: -0.012 with entinostat; inactive: -0.015 in the test with vorinostat. Besides, the log2 fold change with citarinostat was inactive: -0.006; in the test with silmitasertib it was inactive: -0.024; in [5], inactive: 0.004; in [6], inactive: -0.059.
As to ITPA (UniProt Q9BY32), the log2 fold change in test [1] is inactive: 0.018; in test [2], inactive: 0.045; in [3], inactive: 0.018; in [4], inactive: 0.042; in the test with entinostat, inactive: -0.033; in the test with vorinostat, inactive: -0.044. Besides, the log2 fold change with citarinostat was inactive: -0.006; with silmitasertib, inactive: -0.06; in test [5], inactive: -0.055; in [6] it was inactive: -0.009.
